For at least one compound, name, drawing or mass did not settle the structure.
Tested on: PI3K
Assay: SELP expression in LP-9 by qRT-PCR, PI3K inhibition
Format: cell-based, human

O=c1cc(N2CCOCC2)oc2c(-c3ccccc3)cccc12 [LY294002]
SELP increase with MIP-1β treatment in LP-9 (100 ng/mL MIP-1β + 10 μM LY294002, 24 hours): significantly reduced the increase in SELP | Basal SELP expression in LP-9 (vehicle-treated LP-9, 10 μM LY294002, 24 hours): had no impact on basal SELP expression

Source: patent US20220025053A1, “Methods of Inhibiting Metastasis in Cancer” (Wisconsin Alumni Research Foundation, priority 2018, published 2022)
